Assay results from patent publication US20070020687A1.
Results are given in words; binding and its absence hold for the method and conditions named. Some results given as binding are weak or reduced against the parent protein; the word gives no strength.

Sequences of proteins named here, by UniProt entry; tags and fusion partners are left off. A change or cut given only in a name is not applied to a line headed by its entry. A line that says so, or that is headed by a name, gives the form on record, which may keep a tag or linker.
UniProt P61586: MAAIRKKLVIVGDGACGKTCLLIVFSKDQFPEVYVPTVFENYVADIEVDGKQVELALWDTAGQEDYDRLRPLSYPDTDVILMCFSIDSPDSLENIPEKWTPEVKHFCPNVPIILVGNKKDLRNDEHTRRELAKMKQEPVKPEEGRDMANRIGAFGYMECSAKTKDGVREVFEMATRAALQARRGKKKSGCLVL
ROCK1 effector-GBD peptide, histidine tagged, with engineered carboxy terminal cysteine (Q13464, form named): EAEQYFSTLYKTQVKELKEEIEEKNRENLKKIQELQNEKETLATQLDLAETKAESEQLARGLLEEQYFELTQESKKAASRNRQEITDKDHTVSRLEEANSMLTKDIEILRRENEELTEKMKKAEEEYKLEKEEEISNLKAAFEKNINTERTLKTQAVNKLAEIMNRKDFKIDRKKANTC

Tests used:
[1] = molecular target: constitutively active recombinant RhoA, glutamine 63 to leucine, histidine tagged (Homo sapiens (Human)) (UniProt P61586); assay: G-LISA on maleimide plates (FIG. 2)
[2] = molecular target: active RhoA, sample not stated (Homo sapiens (Human)) (UniProt P61586); assay: G-LISA with TCA Antigen Presenting Buffer
[3] = molecular target: constitutively active recombinant RhoA, glutamine 63 to leucine, histidine tagged (Homo sapiens (Human)) (UniProt P61586); assay: RhoA G-LISA, ROCK1-GBD on maleimide plate, luminometry

Measured: binding

ROCK1 effector-GBD peptide, histidine tagged, with engineered carboxy terminal cysteine (from UniProt Q13464 847-1024)
binds: all assays above
